At least one structure is not confirmed: it was looked up by name or label, or the drawing left a doubt.
Test system: wildtype (WT) melanocytes
Test: melanin assay in wildtype melanocytes
Format: cell-based
Settings: FIG. 3; 72 hours
Method: Cells were seeded in six-well plates in triplicate. After 24 hours, each cell line was treated with IBMX, forskolin or rapamycin, in addition, Oca2-null melanocytes were treated with bafilomycin. Plates were incubated for 72 hours. Melanocytes were harvested and a melanin assay performed as described above.
Wildtype cells were plated in 24-well plates for 24 hours followed by dosing with the indicated compounds. DMSO was used as a vehicle control. Cells were harvested after 3 days and a melanin assay was performed as described above.
Selected compounds identified in the screen were tested using a traditional melanin assay in order to verify the findings of the screen. Following 3 (normal melanocytes) or 5 (mutant melanocytes) days of treatment, melanocytes were harvested in extraction buffer (50 mM Tris pH7.5, 2 mM EDTA, 150 mM NaCl) containing 1% Triton X-100 and protease inhibitors (Complete, Roche Indianapolis, Ind.) following two washes with 1× phosphate buffered saline (PBS). The lysate was centrifuged for 30 min at 13,000 rpm in a microfuge. The supernatant was removed and the protein concentration determined using a protein assay kit (BioRad, Richmond, Calif.). […] The optical density was determined at 490 nm. The value was normalized to protein concentration in the supernatant and expressed as a ratio of the melanin in the untreated cells.

C=C[C@@]1(C)CC(=O)[C@]2(O)[C@@]3(C)[C@@H](O)CCC(C)(C)[C@@H]3[C@H](O)[C@H](OC(C)=O)[C@@]2(C)O1 [forskolin]
melanin content of wildtype (WT) melanocytes: effective in increasing the melanin content
